{"source": "PubChem BioAssay AID1224830 (NIAID, 2016)", "aim": "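Regulators of TLR4 signalling towards TNF-alpha in macrophage-like cells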 (primary screen)", "cell system": "human THP-1 monocytic leukaemia cells, TNF dual-luciferase reporter clone, PMA-differentiated to macrophage-like cells", "reagent": "siRNA pool against human genes, 50 nM", "duration": "LPS for 4 h, given about 3 days after siRNA transfection", "conditions": "bacterial LPS (TLR4 ligand), 10 ng/ml", "measured": "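TNF firefly reporter luminescence divided by renilla, normalised to the plate median, then turned into a robust z-score for each replicate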", "reading the numbers": "TNF reporter robust z-score: higher = stronger TNF reporter response to LPS", "active means": "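Each well counts as active if its z-score is over 2.8 or under -1.5; controls are left without a call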", "note": "This is an unselected part of about 18,000 deposited reagents. Over the whole deposit, about 2,900 (16%) are marked active. 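Calls are made per well; low scores hint the gene aids the LPS response, high scores that it dampens it.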 Entries without a mark were called inactive. Repeated entries: four replicate wells of each siRNA pool."}
{"gene symbol": "TVP23A (trans-golgi network vesicle protein 23 homolog A)", "TNF reporter robust z-score": -0.24}
{"gene symbol": "TVP23A (trans-golgi network vesicle protein 23 homolog A)", "TNF reporter robust z-score": 0.26}
{"gene symbol": "TVP23A (trans-golgi network vesicle protein 23 homolog A)", "TNF reporter robust z-score": -1.37}
{"gene symbol": "TVP23A (trans-golgi network vesicle protein 23 homolog A)", "TNF reporter robust z-score": -0.65}
{"gene symbol": "GNAS (GNAS complex locus)", "TNF reporter robust z-score": -0.4}
{"gene symbol": "GNAS (GNAS complex locus)", "TNF reporter robust z-score": -0.27}
{"gene symbol": "GNAS (GNAS complex locus)", "TNF reporter robust z-score": -0.2}
{"gene symbol": "GNAS (GNAS complex locus)", "TNF reporter robust z-score": 0.12}
{"gene symbol": "BNIP3L (BCL2 interacting protein 3 like)", "TNF reporter robust z-score": -0.44}
{"gene symbol": "BNIP3L (BCL2 interacting protein 3 like)", "TNF reporter robust z-score": -0.7}
{"gene symbol": "BNIP3L (BCL2 interacting protein 3 like)", "TNF reporter robust z-score": -0.33}
{"gene symbol": "BNIP3L (BCL2 interacting protein 3 like)", "TNF reporter robust z-score": -0.13}

5 entries from above in another layout.
GNAS (GNAS complex locus)
- TNF reporter robust z-score: -0.2

GNAS (GNAS complex locus)
- TNF reporter robust z-score: 0.12

BNIP3L (BCL2 interacting protein 3 like)
- TNF reporter robust z-score: -0.44

BNIP3L (BCL2 interacting protein 3 like)
- TNF reporter robust z-score: -0.7

BNIP3L (BCL2 interacting protein 3 like)
- TNF reporter robust z-score: -0.33

Continued.
{"gene symbol": "RNF26 (ring finger protein 26)", "TNF reporter robust z-score": 0.39}
{"gene symbol": "RNF26 (ring finger protein 26)", "TNF reporter robust z-score": -0.56}
{"gene symbol": "RNF26 (ring finger protein 26)", "TNF reporter robust z-score": -0.23}
{"gene symbol": "RNF26 (ring finger protein 26)", "TNF reporter robust z-score": -0.73}
{"gene symbol": "CBLL1 (Cbl proto-oncogene like 1)", "TNF reporter robust z-score": -0.82}
{"gene symbol": "CBLL1 (Cbl proto-oncogene like 1)", "TNF reporter robust z-score": -0.51}
{"gene symbol": "CBLL1 (Cbl proto-oncogene like 1)", "TNF reporter robust z-score": 0.5}
{"gene symbol": "CBLL1 (Cbl proto-oncogene like 1)", "TNF reporter robust z-score": -0.55}
{"gene symbol": "FUNDC2 (FUN14 domain containing 2)", "TNF reporter robust z-score": -0.33}
{"gene symbol": "FUNDC2 (FUN14 domain containing 2)", "TNF reporter robust z-score": 0.66}
{"gene symbol": "FUNDC2 (FUN14 domain containing 2)", "TNF reporter robust z-score": 0.22}
{"gene symbol": "FUNDC2 (FUN14 domain containing 2)", "TNF reporter robust z-score": -0.36}
{"gene symbol": "STYX (serine/threonine/tyrosine interacting protein)", "TNF reporter robust z-score": -0.44}
{"gene symbol": "STYX (serine/threonine/tyrosine interacting protein)", "TNF reporter robust z-score": 0.44}
{"gene symbol": "STYX (serine/threonine/tyrosine interacting protein)", "TNF reporter robust z-score": -0.35}
{"gene symbol": "STYX (serine/threonine/tyrosine interacting protein)", "TNF reporter robust z-score": -0.38}
{"gene symbol": "COA3 (cytochrome c oxidase assembly factor 3)", "TNF reporter robust z-score": -1.48}
{"gene symbol": "COA3 (cytochrome c oxidase assembly factor 3)", "TNF reporter robust z-score": -1.28}
{"gene symbol": "COA3 (cytochrome c oxidase assembly factor 3)", "TNF reporter robust z-score": -0.58}
{"gene symbol": "COA3 (cytochrome c oxidase assembly factor 3)", "TNF reporter robust z-score": -1.03}
